Several values for one entry are separate records, joined by “and”; a condition that tells them apart may be missing. Equal entries are not always repeated. At least one peptide structure holds a part that was inferred or is arguable (an end, a ring closure or a residue). Non-standard residues stand in square brackets, D forms with d. Residues, ends and D or L forms follow the SMILES beside them. *: point of attachment. His(τ-Bzl) = N[C@@H](Cc1cn(Cc2ccccc2)cn1)C(=O)O; Boc = CC(C)(C)OC(=O)*; Bn = c1ccc(C*)cc1
Tested on: LRF (luteinizing hormone release factor) induced luteinizing hormone (LH) release
Test: LRF antagonist activity in vitro in rat anterior pituitary cell cultures
Assay type: cell-based
Conditions: LRF Control 3.5×10^-10
Excerpt: Pentapeptides of this invention were screened for LRF antagonist activity in vitro using rat anterior pituitary cell cultures as described by Vale et. al. [Endocrinology, 91, 562 (1972)]. The inhibition of LRF (luteinizing hormone release factor) induced luteinizing hormone (LH) release into the culture medium is the endpoint in this in vitro bioassay.

COC(=O)[C@@H](C)NC(=O)[C@H](COCc1ccccc1)NC(=O)[C@H](Cc1ccc(OCc2ccccc2)cc1)NC(=O)[C@H](Cc1cn(Cc2ccccc2)cn1)NC(=O)[C@@H]1CCCN1C(=O)OC(C)(C)C [N^α -t-Butoxycarbonyl-L-prolyl-N^im -benzyl-L-histidyl-O-benzyl-L-tyrosyl-O-benzyl-L-seryl-D-alanine methyl ester] (Boc-P[His(τ-Bzl)]Y(Bn)S(Bn)[dA]-OMe)
LH Value (Molar Conc. 1×10^-7): 20.07 ng/mL and 23.02 ng/mL | LH Value (Molar Conc. 2×10^-7): 13.57 ng/mL | % LH Release Inhibition (Molar Conc. 3×10^-7): 70% | LH Value (Molar Conc. 3×10^-7): 16.06 ng/mL | % LH Release Inhibition (Molar Conc. 3×10^-8): 44% | LH Value (Molar Conc. 3×10^-8): 22.51 ng/mL | LH Value (Molar Conc. 3.5×10^-7): 13.10 ng/mL | % LH Release Inhibition (Molar Conc. 6×10^-7): 112% | LH Value (Molar Conc. 6×10^-7): 9.21 ng/mL and 14.32 ng/mL | % LH Release Inhibition (Molar Conc. 6×10^-8): 48% and 42% | LH Value (Molar Conc. 6×10^-8): 21.50 ng/mL and 29.34 ng/mL

CCNC(=O)[C@@H](C)NC(=O)[C@H](COCc1ccccc1)NC(=O)[C@@H](Cc1ccc(OCc2ccccc2)cc1)NC(=O)[C@H](Cc1c[nH]c2ccccc12)NC(=O)[C@H](Cc1cn(Cc2ccccc2)cn1)NC(=O)OC(C)(C)C [N^α -Butoxycarbonyl-N^im -benzyl-L-histidyl-L-tryptophyl-O-benzyl-D-tyrosyl-O-benzyl-L-seryl-D-alanine N-ethylamide] (Boc-[His(τ-Bzl)]W[dY](Bn)S(Bn)[dA]-NHEt)
LH Value (Molar Conc. 1×10^-6): 13.21 ng/mL

Reference: US4043993A, “New pentapeptides and methods for their production” (Parke, Davis & Company, priority 1976, dated 1977)
